Experimental findings from PubChem BioAssay AID493014 (National Center for Advancing Translational Sciences (NCATS), 2011) are described below.

Molecules are shown by their SMILES. The list shows a part of the results. Shown are side measurements of this screen, not its main read-out; they come without a call. Most of these compounds were active or inconclusive in the main read-out, so they are no random draw. Potencies come from curve fits of mixed quality, noted in brackets.

This experiment in a line: qHTS Assay to Find Inhibitors of Chronic Active B-Cell Receptor Signaling. The note with it: ABC-DLBCL IkBa-CBG/CBR reporter, luminescence ratio (green luciferase fused to IkBa over red control in TMD8 lymphoma cells), 4 h. In outline:
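TMD8 ABC-DLBCL cells carrying doxycycline-inducible green luciferase fused to IkappaBalpha plus unfused red luciferase were exposed to compounds (up to 46 uM) for 4 hrs at 37C. Activity came from the overlap-corrected green/red luminescence ratio.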

Setting [1] is: measured here: CBR red luminescence, cell number.
The mark [2] stands for this setting: measured here: IkBa-CBG green luminescence.

Turning to `Cc1cc(Cl)cc2c(N=Nc3ccccc3C(=O)O)c(O)[nH]c12`, the AC50 under setting [1] is 2 µM [falling, full curve].

As for `O=C(C[n+]1cn(C(F)F)c2ccccc21)c1ccc(Br)cc1`, the AC50 under setting [1] is 20 µM [falling, single point]. On the same count and under the same terms, under `COc1ccc(CCN(Cc2cccs2)S(=O)(=O)c2ccc(S(=O)(=O)N3CCC(C)CC3)cc2)cc1OC` stands 1.46 µM [rising, partial curve, poor fit]. On the same count and under the same terms, under `Cc1cc(C(=O)N/N=C/c2cccs2)no1` stands 32.6 µM [falling, single point]; under `CCOC(=O)c1sc(NC(=S)NC(=O)c2cccc(OC)c2)nc1C`, 0.631 µM [falling, full curve]; under `CCC(C)(C(=O)NC1CCCC1)N(C(=O)CNC(C)=O)c1ccc(C)cc1` (stereo not drawn), 29.1 µM [rising, single point].

On to `CC(C)(C)c1ccc(C(=O)Nc2ccc(C(=O)N3CCOCC3)cc2)cc1`, for which the AC50 under setting [1] is 5.62 µM [rising, partial curve, poor fit]. Same read-out and setting: under `O=C(N/N=C/c1ccccc1[N+](=O)[O-])c1ccc2nc[nH]c2c1` stands 14.1 µM [falling, partial curve, poor fit]. Regarding `COc1ccc(/C=N/NC(=O)c2cccnc2)cc1CSc1nc2ccccc2s1`, the AC50 runs as follows: under setting [1], 23.1 µM [falling, single point]; under setting [2], 3.66 µM [falling, partial curve, poor fit]. Take `Cc1ccc(N(C(C)C(=O)N2CCCC2)S(C)(=O)=O)cc1` (stereo not drawn): the AC50 under setting [1] is 0.112 µM [rising, full curve, poor fit]. Still for that read-out and setting: under `O=C(NCC1COc2ccccc2O1)c1cc2ccccc2o1` (stereo not drawn) stands 1.3 µM [rising, full curve, poor fit]; under `CS(=O)(=O)N1CCC(C(=O)Nc2ccccc2)CC1`, 5.8 µM [rising, full curve]. On the same count and under the same terms, under `COCC(=O)N1CCN(c2cccc(C(F)(F)F)c2)CC1` stands 0.1 µM [rising, full curve, poor fit]. As to `C=CCn1c(N/N=C/c2ccc(O)cc2)nc2ccccc2c1=O`, the AC50 under setting [2] is 0.0794 µM [rising, full curve, poor fit].

For `O=Cc1cn(CCOc2ccccc2F)c2ccccc12`, the AC50 under setting [1] was 3.16 µM [rising, partial curve, poor fit]. On the same count and under the same terms, under `CCOCCCNC(=O)Cn1cc2c(n1)CCCCC2` stands 2.06 µM [rising, partial curve, poor fit]; under `O=c1cc(-c2ccc(O)c(O)c2)oc2cc(O)c([C@@H]3O[C@H](CO)[C@@H](O)[C@H](O)[C@H]3O)c(O)c12`, 16.4 µM [rising, single point].

Consider `O=c1oc(-c2cccs2)nc2sc3c(c12)CCCC3`, for which, under setting [1], the AC50 is 20.6 µM [falling, partial curve, poor fit]. On the same count and under the same terms, as for `Cc1cc(C(=O)Nc2ccccc2C(=O)O)oc1C`, the figure is 0.447 µM [falling, full curve]. Turning to `COCCCNC(=O)c1ccc2nc3ccccc3c(=O)n2c1`, the AC50 runs as follows: under setting [1], 6.51 µM [falling, full curve]; under setting [2], 1.64 µM [rising, partial curve, poor fit]. For `COc1ccc(S(=O)(=O)n2nc(-c3ccc(Cl)cc3)cc2N)cc1`, under setting [1], the AC50 is 14.1 µM [falling, single point]. As for `CS(=O)(=O)c1ccc(C(=O)OCC(=O)NCc2cccs2)cc1[N+](=O)[O-]`, the AC50 is, setting by setting: under setting [1], 7.31 µM [falling, partial curve]; under setting [2], 13 µM [rising, partial curve, poor fit].

Take `Cc1cc(SCC(=O)Nc2cccc(S(=O)(=O)N3CCOCC3)c2)nc2ccccc12`: the half-maximal activity concentration (AC50) under setting [1] was 35.5 µM [falling, single point]. Still for that read-out and setting: as for `CCOc1ccc(OCC(=O)Nc2nccs2)cc1`, the figure is 10 µM [falling, partial curve].

As for `Cc1nc(N)nc(N/N=C/c2ccccc2)n1`, under setting [1], the concentration at half-maximal activity (AC50) is 35.5 µM [falling, single point]. Still for that read-out and setting: under `O=C(NN=C1CCCC1)c1ccc(Br)cc1` stands 7.94 µM [falling, partial curve, poor fit]. On the same count and under the same terms, under `Cc1nc(CCN2C(=O)c3ccccc3C2=O)n[nH]1` stands 0.92 µM [falling, full curve, poor fit]; under `Cc1ccc(C(=O)Oc2oc(-c3ccco3)nc2C=Nc2ccccc2)cc1`, 14.1 µM [falling, partial curve]; under `COc1ccc(CC(=O)Nc2c3c(nn2C(C)(C)C)CS(=O)C3)cc1` (stereo not drawn), 6.51 µM [falling, single point]. As for `CCCCN(C)S(=O)(=O)c1cc2c3c(c1)CCC(=O)N3CCC2`, the AC50 under setting [1] is 3.55 µM [falling, partial curve, poor fit]. The same measure, in the same setting: as for `CCn1c(C(=O)N2CCC(C(=O)NCCCSC3CCCCC3)CC2)cc2sccc21`, the figure is 29.1 µM [falling, single point].

With `C(=N\N(Cc1ccccc1)c1ccccc1)/c1cccnc1`, under setting [1], the AC50 is 8.91 µM [falling, partial curve, poor fit].

As for `Cc1cccc(N2CCN(C(=O)c3ccc4[nH]c(C)c(C)c4c3)CC2)c1C`, the concentration at half-maximal activity (AC50) is 29.1 µM [rising, single point] under setting [1] and 29.1 µM [falling, single point] under setting [2]. Turning to `Cc1c(OCc2ccc(C(=O)O)cc2)ccc2c(-c3ccccc3)cc(=O)oc12`, the AC50 under setting [1] is 7.08 µM [falling, partial curve, poor fit]. Still for that read-out and setting: under `Cn1c(=O)n(-c2cccc(Cl)c2)c(=O)c2c3c(sc21)COC(C)(C)C3` stands 0.631 µM [falling, partial curve, poor fit]; under `C/C(=N\N=C(c1ccccc1)c1ccccc1)c1cccs1`, 31.6 µM [rising, single point]; under `Cc1ccc(Nc2nnc(SC3CCOC3=O)s2)cc1` (stereo not drawn), 18.4 µM [falling, single point]. Turning to `CC1=C(/C=C/C(C)=N\NC(=O)c2ccncc2)C(C)(C)CCC1`, under setting [1], the AC50 is 11.2 µM [rising, partial curve, poor fit]. On to `CCOC(=O)c1cccc(Nc2ncnc3ccc(C)cc23)c1`, for which the AC50 under setting [1] is 12.6 µM [falling, partial curve, poor fit]. Still for that read-out and setting: as for `O=C(CCC1CCCC1)Nc1ccc([N+](=O)[O-])cn1`, the figure is 3.66 µM [rising, full curve, poor fit]; as for `Cn1c(SCc2nc3ccccc3c(=O)[nH]2)nc2ccccc21`, 11.2 µM [falling, single point].

On to `CC(=O)N(c1ccccc1)C(C)c1nc(C#N)c(C#N)nc1C` (stereo not drawn), for which the AC50 under setting [1] is 23.1 µM [falling, single point]. With `Cc1cc(C)cc(NC(=O)Cc2ccc(-n3cccc3)cc2)c1`, the AC50 under setting [1] was 4.61 µM [rising, single point]. In the case of `COC(=O)c1ccc(N2CCN(c3ccccc3)CC2)nc1`, under setting [1], the AC50 was 2.51 µM [rising, full curve, poor fit]. For the compound `C=CCNC(=O)COc1ccc(S(=O)(=O)Nc2ccc(OCC)cc2)cc1`, the AC50 under setting [1] is 4.11 µM [rising, full curve, poor fit]. Same read-out and setting: as for `COc1ccccc1OCCn1c(=O)n(C)c2ccccc21`, the figure is 22.4 µM [rising, single point]. Still for that read-out and setting: as for `Cc1ccc2c(c1)C(=O)C(=O)N2CCCOc1ccccc1`, the figure is 3.16 µM [rising, partial curve]; as for `O=C(CSc1n[nH]c(=O)[nH]c1=O)N/N=C/C=C/c1ccccc1`, 15.8 µM [rising, single point].

Turning to `CN(Cc1c(C(=O)N/N=C/c2c(F)cccc2Cl)nnn1-c1nonc1N)c1ccccc1`, the AC50 under setting [1] is 35.5 µM [falling, single point]. The same measure, in the same setting: under `COc1ccc(NC(=S)N2CCNC(=O)C2CC(=O)Nc2cccc(Cl)c2C)cc1` (stereo not drawn) stands 3.66 µM [rising, full curve, poor fit]; under `Cc1cc(SCC(=O)NC2CC2)nc2ccccc12`, 16.4 µM [rising, single point]. Same read-out and setting: under `O=C(OCn1nnc2ccccc2c1=O)c1cc2ccccc2o1` stands 5.01 µM [falling, full curve]; under `CCN1C(c2ccccc2)=C(c2ccccc2)S/C1=C/C=C1\SC(=S)N(C)C1=O`, 23.1 µM [rising, single point]. In the case of `CCCn1c(=O)c2[nH]c(-c3ccc(S(=O)(=O)O)cc3)nc2n(CCC)c1=O`, under setting [1], the AC50 is 1.16 µM [falling, full curve].

Turning to `COc1ccc2nc(NC(=O)CCNS(=O)(=O)c3ccc4c(c3)oc(=O)n4C)sc2c1`, the AC50 under setting [1] was 0.1 µM [falling, full curve, poor fit]. On the same count and under the same terms, as for `CCc1ccc2[nH]c(C(=O)Nc3ccc(Br)c(C)n3)cc2c1`, the figure is 0.447 µM [rising, full curve, poor fit]; as for `O=C(Nc1ccccc1F)c1ccc2c(c1)OCO2`, 1.58 µM [falling, full curve]; as for `COc1ccc(S(=O)(=O)N2CCCCCC2)cc1NC(=O)Cc1n[nH]c(=O)c2ccccc12`, 11.6 µM [falling, partial curve]. Same read-out and setting: under `Cc1cc(NS(=O)(=O)c2ccc(NC(=O)COc3ccc(Cl)cc3)cc2)no1` stands 0.146 µM [falling, full curve, poor fit]. The same measure, in the same setting: as for `CCC(COC)NC(=O)CCc1nnc(Cc2cccc(C(F)(F)F)c2)o1` (stereo not drawn), the figure is 3.16 µM [rising, single point]; as for `CC(C)Oc1ccccc1C1Nc2ccccc2C(=O)N1c1ccc2c(c1)OCCO2` (stereo not drawn), 29.1 µM [falling, single point]; as for `CCN(c1ccccc1)S(=O)(=O)c1ccc(Oc2ccc(-n3ccnc3)cc2)nc1`, 4.47 µM [falling, single point].

Regarding `CCC(C)NC(=O)c1cc(-c2ccccc2O)on1` (stereo not drawn), the AC50 under setting [1] is 0.355 µM [falling, full curve]. Same read-out and setting: as for `CN1C(=O)/C(=C/C=C2\SCCN2C)OC1=S`, the figure is 20 µM [rising, partial curve, poor fit].
